Assay results reported in patent publication US12091425B2 (AMGEN INC., priority 2016, dated 2024).

Protein sequences, listed by entry. Tags and fused reporters are not part of them. Residues count along the entry.
UniProt Q07820, 171-327 limits assumed: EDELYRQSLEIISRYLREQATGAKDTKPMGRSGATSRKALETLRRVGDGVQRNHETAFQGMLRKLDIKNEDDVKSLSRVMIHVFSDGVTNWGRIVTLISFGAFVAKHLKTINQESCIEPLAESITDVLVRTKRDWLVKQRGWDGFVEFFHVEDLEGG

Key:
[1] = target: Mcl-1/Bim interaction, recombinant human Mcl-1 (171-327) (Homo sapiens, UniProt Q07820); experiment: Cell free Mcl-1: Bim Affinity Assay (Mcl-1 HTRF); format: binding; conditions: read-out: Mcl-1 HTRF
[2] = test system: OPM-2 human multiple myeloma cell line; experiment: Cell Viability Assay (OPM-2 10 FBS); format: cell-based
[3] = cell free Mcl-1:Bim TR-FRET, recombinant human Mcl-1 (171-327)
[4] = read-out: OPM-2 10% FBS, OPM-2 cells, 16 h, CellTiter-Glo
[5] = TR-FRET, 0.1 nM Mcl-1 (171-327), 0.05 nM biotin-Bim (51-76)

SMILES | IC50 [1, 3] [µM] | IC50 [2, 4] [µM] | IC50 [1, 5] [µM] | IC50 ([2]; read-out: OPM-2 10% FBS, OPM-2 cells, 16 h incubation, CellTiter-Glo) [µM]
CC(=O)O[C@H]1/C=C/CC(C2CC2)CS(=O)(=O)NC(=O)c2ccc3c(c2)N(C[C@@H]2CC[C@H]21)C[C@@]1(CCCc2cc(Cl)ccc21)CO3 (stereo partly drawn) | 0.0196 | 19 |  | 
O=C1NS(=O)(=O)C2CCC[C@H](C2)[C@@H](O)[C@@H]2CC[C@H]2CN2C[C@@]3(CCCc4cc(Cl)ccc43)COc3ccc1cc32 (single isomer, unassigned) |  | 2.96 | 0.000751 | 
O=C1NS(=O)(=O)CCC(O)C(O)C[C@H](O)[C@@H]2CC[C@H]2CN2C[C@@]3(CCCc4cc(Cl)ccc43)COc3ccc1cc32 (stereo partly drawn) | 0.00438 |  |  | 
CO[C@H]1/C=C/[C@H](CC(C)O)C[C@@H](C)S(=O)(=O)NC(=O)c2ccc3c(c2)N(C[C@@H]2CC[C@H]21)C[C@@]1(CCCc2cc(Cl)ccc21)CO3 (stereo partly drawn) |  | 3.29 | 0.00317 | 
O=C1NS(=O)(=O)CC(CO)CCCC[C@H](O)[C@@H]2CC[C@H]2CN2C[C@@]3(CCCc4cc(Cl)ccc43)COc3ccc1cc32 (stereo partly drawn) | 0.00822 |  |  | 
O=C1NS(=O)(=O)N(CC2CO2)CC/C=C/[C@H](O)[C@@H]2CC[C@H]2CN2C[C@@]3(CCCc4cc(Cl)ccc43)COc3ccc1cc32 (stereo partly drawn) |  | 0.0541 | 0.0002 | 
CC1/C=C/C(=O)[C@@H]2CC[C@H]2CN2C[C@@]3(CCCc4cc(Cl)ccc43)COc3ccc(cc32)C(=O)NS(=O)(=O)[C@H](C)[C@H]1C (stereo partly drawn) |  |  | 0.00555 | 5.71

Where two headings read alike, the source gives them in different places. Structures were worked out from names or drawings and are uncertain.
